{"source": "patent US20210292765A1", "about": "“COMPOSITIONS COMPRISING INTERMEDIATE NON-CODING RNA REGULATORS MODULATING THE EXPRESSION OF ETV6 OR FOXO1 AND USES THEREOF” (University of Exeter, priority 2018, published 2021)", "key": {"[1]": {"test_system": "ERK and AKT signalling proteins", "assay": "Phosphorylation status, human MAPK phosphorylation antibody array", "assay_type": "cell-based"}, "ETV6": {"test_system": "ETV6", "assay": "ETV6 gene expression (knockdown level, mRNA response)", "assay_type": "cell-based, human", "conditions": "low dose, senescent cells"}, "[2]": {"test_system": "senescent primary human fibroblasts", "assay": "Splicing factor transcript expression by qRTPCR (TLDA)", "assay_type": "cell-based", "conditions": "low dose (1 μM)", "procedure": "Late passage primary human fibroblasts at PD=63 were seeded at 6×10^4 cells per well as 3 biological replicates in 6-well plates, allowed to grow for 10 days and then treated with the ERK inhibitor trametinib or the AKT inhibitor SH-6 at 1 μM or 10 μM for 24 hrs. Vehicle (DMSO) only controls were also included under the same growth conditions. The expression levels of 20 splicing factor transcripts previously associated with age, replicative senescence or lifespan in our previous work (Harries et al. 2011; Holly et al. 2013; Lee et al. 2016) were then assessed by qRTPCR. RNA was extracted using TRI Reagent® (Life Technologies, Foster City USA) according to the manufacturer's instructions. Total RNA (100 ng) was reverse transcribed in 20 μl reactions using the Superscript III VILO kit (Life Technologies). Transcript expression was then quantified in duplicate for each biological replicate using TaqMan Low Density Array (TLDA) on QuantStudio 12K Flex (Applied Biosystems, Foster City, USA). Cycling conditions were 1 cycle each of 50° C. for 2 min, 94.5° C. for 10 min and then 40 cycles of 97° C. for 30 s and 57.9° C. for 1 min. […] Transcript expression was assessed by the Comparative Ct approach, relative to the IDH3B, GUSB and PP/A endogenous control genes and normalised to their expression in RNA from untreated late passage cells."}, "FOXO1": {"test_system": "FOXO1", "assay": "FOXO1 gene expression (knockdown level, mRNA response)", "assay_type": "cell-based, human", "conditions": "senescent cells"}}, "note": "At least one compound was matched to its structure with a doubt left.", "data": [{"smiles": "CC(=O)Nc1cccc(-n2c(=O)n(C3CC3)c(=O)c3c(Nc4ccc(I)cc4F)n(C)c(=O)c(C)c32)c1", "note": "[Trametinib, trametinib]", "values": [{"measurement": "ERK protein phosphorylation", "setting": "[1]; both 1 μM and 10 μM", "value": "specific reduction"}, {"measurement": "GSK3β phosphorylation", "setting": "[1]; high concentration", "value": "Down regulation"}, {"measurement": "GSK3a phosphorylation", "setting": "[1]; high dose, significant only for high dose SH6", "value": "increased levels"}, {"measurement": "GSK3β phosphorylation", "setting": "[1]; low concentration", "value": "Down regulation"}, {"measurement": "GSK3a phosphorylation", "setting": "[1]; low dose, significant only for low dose trametinib", "value": "decreased levels"}, {"measurement": "ETV6 expression at the mRNA level", "setting": "ETV6", "value": "induction"}, {"measurement": "splicing factor expression (20 splicing regulator genes)", "setting": "[2]", "value": "upregulation of multiple splicing factors"}, {"measurement": "FOXO1 expression at the mRNA level", "setting": "FOXO1; high dose", "value": "altered"}, {"measurement": "FOXO1 expression at the mRNA level", "setting": "FOXO1; low dose", "value": "induction"}]}]}
